Experimental data published in paper PMC5527091.

Molecular target: Akt (mouse (endogenous in EOMA))
Experiment: co-IP; EOMA cells treated with or without platelets for 30 minutes, lysed; immunoprecipitation with anti-Akt antibody (Cell Signaling Technology #4691) using the Pierce Crosslink IP Kit; normal rabbit IgG as negative control; integrin β3 detected by Western blot

binding: binds
B1: integrin β3 (protein, UniProt O54890 26-787)
chain: ESNICTTRGVNSCQQCLAVSPVCAWCSDETLSQGSPRCNLKENLLKDNCAPESIEFPVSEAQILEARPLSSKGSGSSAQITQVSPQRIALRLRPDDSKIFSLQVRQVEDYPVDIYYLMDLSFSMKDDLSSIQTLGTKLASQMRKLTSNLRIGFGAFVDKPVSPYMYISPPQAIKNPCYNMKNACLPMFGYKHVLTLTDQVSRFNEEVKKQSVSRNRDAPEGGFDAIMQATVCDEKIGWRNDASHLLVFTTDAKTHIALDGRLAGIVLPNDGHCHIGTDNHYSASTTMDYPSLGLMTEKLSQKNINLIFAVTENVVSLYQNYSELIPGTTVGVLSDDSSNVLQLIVDAYGKIRSKVELEVRDLPEELSLSFNATCLNNEVIPGLKSCVGLKIGDTVSFSIEAKVRGCPQEKEQSFTIKPVGFKDSLTVQVTFDCDCACQAFAQPSSPRCNNGNGTFECGVCRCDQGWLGSMCECSEEDYRPSQQEECSPKEGQPICSQRGECLCGQCVCHSSDFGKITGKYCECDDFSCVRYKGEMCSGHGQCNCGDCVCDSDWTGYYCNCTTRTDTCMSTNGLLCSGRGNCECGSCVCVQPGSYGDTCEKCPTCPDACSFKKECVECKKFNRGTLHEENTCSRYCRDDIEQVKELTDTGKNAVNCTYKNEDDCVVRFQYYEDTSGRAVLYVVEEPECPKGPDILVVLLSVMGAILLIGLATLLIWKLLITIHDRKEFAKFEEERARAKWDTANNPLYKEATSTFTNITYRGT

No constants are given. Whether binding was seen depends on the method and setting. Binding seen in cells or lysates may run through a third protein. A result given as binding can be weak or reduced; the word gives no strength.
